{
  "sequences": {"note": "Amino acid sequences for entries named in this document (tags omitted). Residues count along the entry.", "UniProt Q9BXW9": "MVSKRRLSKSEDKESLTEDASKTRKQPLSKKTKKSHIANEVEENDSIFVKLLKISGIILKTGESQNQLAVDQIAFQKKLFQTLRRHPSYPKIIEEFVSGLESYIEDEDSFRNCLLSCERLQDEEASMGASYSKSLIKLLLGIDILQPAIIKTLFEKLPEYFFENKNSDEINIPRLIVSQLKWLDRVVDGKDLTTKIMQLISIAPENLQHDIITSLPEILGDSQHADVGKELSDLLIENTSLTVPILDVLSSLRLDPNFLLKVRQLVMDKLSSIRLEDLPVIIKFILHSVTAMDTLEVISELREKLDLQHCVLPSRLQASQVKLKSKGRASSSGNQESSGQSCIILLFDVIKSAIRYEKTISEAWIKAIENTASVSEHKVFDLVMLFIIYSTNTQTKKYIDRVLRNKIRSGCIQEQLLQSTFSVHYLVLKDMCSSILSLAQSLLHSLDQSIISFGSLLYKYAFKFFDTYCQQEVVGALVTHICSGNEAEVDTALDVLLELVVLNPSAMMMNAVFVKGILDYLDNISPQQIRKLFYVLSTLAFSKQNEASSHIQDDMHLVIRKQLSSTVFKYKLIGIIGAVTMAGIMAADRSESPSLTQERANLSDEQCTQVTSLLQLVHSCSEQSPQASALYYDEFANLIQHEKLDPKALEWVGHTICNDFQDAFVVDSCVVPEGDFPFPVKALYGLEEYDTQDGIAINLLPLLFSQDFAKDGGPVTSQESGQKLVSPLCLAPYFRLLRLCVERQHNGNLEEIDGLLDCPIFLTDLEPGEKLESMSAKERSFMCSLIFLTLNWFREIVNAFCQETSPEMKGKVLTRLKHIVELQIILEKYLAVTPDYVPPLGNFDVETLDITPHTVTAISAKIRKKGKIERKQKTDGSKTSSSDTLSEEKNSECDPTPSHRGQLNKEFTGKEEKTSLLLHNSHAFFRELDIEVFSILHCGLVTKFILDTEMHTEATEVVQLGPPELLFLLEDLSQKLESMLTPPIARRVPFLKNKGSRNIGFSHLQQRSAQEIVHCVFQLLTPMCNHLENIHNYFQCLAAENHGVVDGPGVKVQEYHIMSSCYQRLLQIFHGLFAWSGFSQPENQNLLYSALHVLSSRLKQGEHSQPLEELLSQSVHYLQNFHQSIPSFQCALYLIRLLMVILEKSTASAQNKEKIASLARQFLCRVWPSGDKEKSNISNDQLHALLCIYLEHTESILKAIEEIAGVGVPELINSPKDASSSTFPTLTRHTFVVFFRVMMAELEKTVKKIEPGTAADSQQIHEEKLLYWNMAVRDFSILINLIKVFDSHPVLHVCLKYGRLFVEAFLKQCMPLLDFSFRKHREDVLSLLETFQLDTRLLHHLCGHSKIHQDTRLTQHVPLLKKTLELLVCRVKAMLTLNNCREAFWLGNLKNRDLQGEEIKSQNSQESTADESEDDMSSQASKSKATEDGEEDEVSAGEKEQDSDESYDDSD", "UniProt P25705, residues 44-553": "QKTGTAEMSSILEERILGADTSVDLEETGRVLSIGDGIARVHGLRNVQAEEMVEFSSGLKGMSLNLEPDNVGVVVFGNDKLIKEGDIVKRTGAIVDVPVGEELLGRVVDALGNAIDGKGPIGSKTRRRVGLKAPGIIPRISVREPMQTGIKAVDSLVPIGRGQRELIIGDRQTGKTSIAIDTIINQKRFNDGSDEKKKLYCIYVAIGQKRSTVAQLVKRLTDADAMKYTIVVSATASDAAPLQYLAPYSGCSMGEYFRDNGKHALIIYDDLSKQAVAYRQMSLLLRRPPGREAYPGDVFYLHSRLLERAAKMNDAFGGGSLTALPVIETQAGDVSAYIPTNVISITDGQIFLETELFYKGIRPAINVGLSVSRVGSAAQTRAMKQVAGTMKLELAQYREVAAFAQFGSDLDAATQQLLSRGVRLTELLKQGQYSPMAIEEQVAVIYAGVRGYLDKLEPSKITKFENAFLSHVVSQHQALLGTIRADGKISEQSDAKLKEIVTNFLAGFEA"},
  "source": "paper PMC5501830",
  "target": "Flag-wtFANCD2 (UniProt Q9BXW9)",
  "experiment": "affinity purification with mass spectrometry; Flag-IP eluates from HEK293T cells transfected with Flag vector, Flag-wtFANCD2 or Flag-mtFANCD2, resolved on an 8-16% gradient gel; the extra band cut out for MS/MS",
  "note": "No constants are given. Whether binding was seen depends on the method and setting. Binding seen in cells or lysates may run through a third protein. Here binding means that the protein was enriched with, or labelled near, the bait; the list need not be complete.",
  "data": [
    {"substance": "ATP5α (endogenous, 293T cells) (from UniProt P25705 44-553)", "values": [
      {"measurement": "binding", "value": "binds"}
    ]}
  ]
}
